Experimental data taken from patent EP4633740A2.
Numbering of substitutions follows the chain as printed. These are yes or no findings as the source states them, for the method shown. Some results given as binding are weak or reduced against the parent protein; the word gives no strength.

Amino acid sequences for entries named in this document (tags omitted). A change or cut given only in a name is not applied to a line headed by its entry.
UniProt P06756: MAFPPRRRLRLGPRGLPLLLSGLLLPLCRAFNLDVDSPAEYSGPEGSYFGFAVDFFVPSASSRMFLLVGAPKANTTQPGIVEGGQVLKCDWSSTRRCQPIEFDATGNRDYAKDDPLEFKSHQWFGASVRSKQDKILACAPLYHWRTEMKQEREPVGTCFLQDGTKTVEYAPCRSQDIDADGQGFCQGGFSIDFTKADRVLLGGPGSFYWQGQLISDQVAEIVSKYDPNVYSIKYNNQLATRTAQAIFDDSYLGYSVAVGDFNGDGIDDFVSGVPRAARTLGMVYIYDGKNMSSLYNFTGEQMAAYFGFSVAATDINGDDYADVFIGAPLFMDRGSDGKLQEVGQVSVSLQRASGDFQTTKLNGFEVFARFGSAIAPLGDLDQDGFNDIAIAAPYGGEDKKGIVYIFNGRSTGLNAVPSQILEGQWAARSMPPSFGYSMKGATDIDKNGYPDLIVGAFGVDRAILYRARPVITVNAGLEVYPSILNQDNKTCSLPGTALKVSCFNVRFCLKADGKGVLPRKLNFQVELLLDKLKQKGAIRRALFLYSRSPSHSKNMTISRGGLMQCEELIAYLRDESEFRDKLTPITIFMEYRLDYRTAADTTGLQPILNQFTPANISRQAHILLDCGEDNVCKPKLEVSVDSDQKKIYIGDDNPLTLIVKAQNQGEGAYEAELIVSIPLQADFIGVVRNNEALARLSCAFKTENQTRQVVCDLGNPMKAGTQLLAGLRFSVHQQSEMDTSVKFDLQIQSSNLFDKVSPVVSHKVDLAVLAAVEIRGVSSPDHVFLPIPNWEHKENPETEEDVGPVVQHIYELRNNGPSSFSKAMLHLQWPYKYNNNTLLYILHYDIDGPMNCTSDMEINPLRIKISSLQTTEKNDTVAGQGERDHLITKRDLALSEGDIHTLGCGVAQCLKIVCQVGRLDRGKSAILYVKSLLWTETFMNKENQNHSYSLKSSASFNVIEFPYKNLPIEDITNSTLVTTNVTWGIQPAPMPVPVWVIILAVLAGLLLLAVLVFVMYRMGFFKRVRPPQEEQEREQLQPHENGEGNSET

B1: SEQ ID NO 65 (VHH)
VHH: QVQLQESGGGLVQPGGSLRLSCAASGSIRSNNAMGWYRQAPGKQREFVATMITGGSRNYTDSVKGRFTISRDNAKNTVWLQMNSLKPEDTAVYYCYYNKIGGRIYWGQGTQVTVSS
B2: SEQ ID NO 57 (VHH)
VHH: QVQLQESGGGLVQAGGSLRLSCTASGRIYSLNVMGWYRQAPGKQREFLATINSGGSTNYADSVKGRFTISRDNAKNTLYLQMNSLKPDDTALYYCRADGRSDYFNTFDSWGQGTQVTVSS
B3: SEQ ID NO 63 (VHH)
VHH: QVQLQESGGGLVQAGGSLRLSCAASGNIYSINVMGWYRQAPGKQRELVATISDGGTTTYADSMKGRFTISRDNAKNTLYLQMNSLKPEDTAVYYCNLNGRNGRRAYWGQGTQVTVSS
B4: SEQ ID NO 62 (VHH)
VHH: QVQLQESGGGLVQAGGSLRLSCAASDTIFSITFMSWYRQAPGKEREVVGVISSGGGTSYADSVKGRFTISRDNVKNTLYLQMNSLKPEDTAVYYCNVMSQNGRRSVYWGQGTQVTVSS
B5: SEQ ID NO 41 (VHH)
VHH: QVQLQESGGGLVQPGGSLRLACAASVSIASINFIGWYRQAPGNQREWVATVSSGDGTNYADSVKGRFTISRDNAKNTVYLQMNSLKPEDTAVYYCNVKQRGTYWGQGTQVTVSS
B6: SEQ ID NO 59 (VHH)
VHH: QVQLQESGGGLVQAGGSLRLSCAASISILSIPAMGWYRQAPGKQRELVAIISSGGSTHYADSVKGRFTISRDNDKNTMYLEMDNLKPDDTAVYDCYARILTANRLTDNWGQGTQVTVSS
B7: SEQ ID NO 61 (VHH)
VHH: QVQLQESGGGLVQAGGSLRLSCAASGNFFSSNAMGWYRQAPGKQREFVAVILSSGSTNYADSVKGRFTISGDNALNTVYLQMNSLKPEDTAVYYCNLKGLEGRTNNYWGQGTQVTVSS
B8: SEQ ID NO 60 (VHH)
VHH: QVQLQESGGGLVQAGGSLRLSCAASGSIASINVMAWYRQAPGKQRELVALITSGTSTNYADSVKGRFTISRDNAKNTVYLQMNNLKPEDTAVYYCNARPRALASYSVWGQGTQVTVSS
B9: SEQ ID NO 53 (VHH)
VHH: QVQLQESGGGLVQAGGSLRLSCAASGSIFSINFVAWFRQPPGKEREWLATITSGGNTNHADTVKDRFTISRDNAKNTVYLQMSSLKPEDTAVYYCKAIVRSRDYWGQGTQVTVSS
B10: SEQ ID NO 54 (VHH)
VHH: B9 VHH with A97T, I98N
B11: SEQ ID NO 51 (VHH)
VHH: QVQLQESGGGLVQAGGSLRLSCAASGSIRDIVFMGWFRQAPGKQREFVATITTGGNTNYADSMKGRFTISRDNAKNTVYLQVNSLKPEDTAVYYCKTVTTRGNAYWGQGTQVTVSS
B12: SEQ ID NO 52 (VHH)
VHH: B11 VHH with L11S, A74T
B13: SEQ ID NO 64 (VHH)
VHH: QVQLQESGGGLVQAGGSLRLSCAASGRIRSFNVMGWYRQAPGKERELVANITSGGNTNYADSMKGRFTISRDNAKNMMYLQMDSLKPEDTAVYYCNLRQLGSRDYWGQGTQVTVSS
B14: SEQ ID NO 48 (VHH)
VHH: QVQLQESGGGLVQAGGSLRLSCEASGSAVSIDNMGWYRQAPGQQREMVAHITSGGSTSYVDSVKGRFTISRDNAENTFYLQMNSLKPEDTAVYYCSANIYADVSHYTTYWGQGTQVTVSS
B15: SEQ ID NO 46 (VHH)
VHH: QVQLQESGGGLVQAGGSLTLSCAASGDIFTVNAMGWYRQAPGKQRELVATIREPGSTNYADFVKGRFTISRDNAENTFYLQMNSLKPEDTAVYYCSANIYADVSHYTTYWGQGTQVTVSS
B16: SEQ ID NO 42 (VHH)
VHH: QVQLQESGGGLVQAGGSLRLSCAASGSIFSFNPMTWYRQSPGKQRELVALITGGDNTRYADSVKGRFTISRDNAKNTIHLQMNSLKPEDTAVYYCNVLWRNAIYWGQGTQVTVSS
B17: SEQ ID NO 43 (VHH)
VHH: B16 VHH with L50S, D55G, R58N
B18: SEQ ID NO 45 (VHH)
VHH: B16 VHH with L50S, D55G, R58N, N76S
B19: SEQ ID NO 44 (VHH)
VHH: B16 VHH with R19G, A23T, A24V, S27N, F29A, S30R, L50S, D55G, R58N
B20: SEQ ID NO 58 (VHH)
VHH: QVQLQESGGGLVQAGGSLRLSCAASGSIFSLNAMGWYRQAPGKQRELVATITTGGNTNYADFVNGRFTISRDNAKNTVYLQMNSLKPEDTAVYVCNAPHVPNGRGITTSWGQGTQVTVSS
B21: SEQ ID NO 66 (VHH)
VHH: QVQLQESGGGLVQAGGSLRLSCVASGITISSSHMGWYRQAPGKQRELVAIITTGDSTNYGDSVKGRFTISRDNNKNMVYLQMNSLKVEDTAVYYCKRTRIGGRDYWGQGTQVTVSS
B22: SEQ ID NO 5 (VHH)
VHH: QVQLQESGGGLVQAGGSLRLSCAASGSIFSIDAMGWYRQAPGNQRELVAHIISGNSTAYSDSVKGRFTISRDNAENTFYLQMNSLKPEDTAVYYCYVNIYSDSSRYTTYWGQGTQVTVSS
B23: SEQ ID NO 7 (VHH)
VHH: B22 VHH with D32N, I52T, N55S, S60P, V97A, S101R, S104Y, R105H
B24: SEQ ID NO 6 (VHH)
VHH: B22 VHH with A40G, I52T, N55G, A58S, S60I, Y96S, V97A, S101G, S104Y, Q112R
B25: SEQ ID NO 9 (VHH)
VHH: B22 VHH with S60P, V97A, S101G, S104Y
B26: SEQ ID NO 8 (VHH)
VHH: B22 VHH with I31M, D32N, I52T, A58S, S60P, V63T, V97A, S101G
B27: SEQ ID NO 56 (VHH)
VHH: QVQLQESGGGLVQAGGSLRLSCVASGSIFTINTMNQYRQAPGKQRDFVAAITSDGNTHYADSVRGRFTVSRNNARKTMYLQMNNLKPEDTAVYYCNIMGQRTVSANVRGYWGQGTQVTVSS

Biological target: human ITGAV/ITGB6 dimer protein (human) (UniProt P06756)
Experiment: colorimetric ELISA, periplasmic extracts

Row | binding | Binder
1 | binds | B1
2 | binds | B2
3 | binds | B3
4 | binds | B4
5 | binds | B5
6 | binds | B6
7 | binds | B7
8 | binds | B8
9 | binds | B9
10 | binds | B10
11 | binds | B11
12 | binds | B12
13 | binds | B13
14 | binds | B14
15 | binds | B15
16 | binds | B16
17 | binds | B17
18 | binds | B18
19 | binds | B19
20 | binds | B20
21 | binds | B21
22 | binds | B22
23 | binds | B23
24 | binds | B24
25 | binds | B25
26 | binds | B26
27 | binds | B27
